{"source": "patent US20040116448A1", "about": "“Substances for the therapy of diseases caused by highly proliferating cells” (priority 2001, published 2004)", "test_system": "BJAB cells", "test": "DNA fragmentation (propidium iodide staining, flow cytometry) apoptosis assay in BJAB cells", "type": "cell-based", "conditions": "25 μmol/l in the culture medium, 24 h", "procedure": "The measurement of apoptosis is based on a method which detects the fragmentation of DNA on the level of individual cells, which is typical of apoptosis and distinguishes this form of cell death from necrosis. Thus, BJAB cells were treated with different concentrations of N76 or N69 for 24 h. Controls contained corresponding amounts of the solubilizer ethanol. After the treatment, the fragmentation of DNA was measured by staining with propidium iodide followed by quantification by flow cytometry as described by Essmann et al. (2000). The values are stated as % of apoptotic cells based on the total population±SD (n=3).\nFurther studies had the result that the BJAB cells are driven to the mitochondrial apoptosis signal pathway by JV-206-1. […] In addition, the fragmentation of the DNA was measured as a specific characteristic of apoptosis as described by Essmann et al. (2000). […] In these experiments, the proportion of apoptotic cells was between 20% and 48% of the total population, depending on the concentration and incubation time.", "note": "Some of these results come from one statement about several compounds together.", "data": [{"substance": "exo-[2′,2″,3′,3″-η-(3′-(3″-(E)-acrylic-acid-ethyl-ester-3″-yl)-2′,3′-didehydro-2′,3′-dideoxy-5′-O-(dimethylthexylsilyl)-β-D-cytidine)]tricarbonyliron [N69]", "values": [{"measurement": "% of apoptotic cells based on the total population (DNA fragmentation)", "value": "60-70%"}]}]}
